Results are given in words; binding and its absence hold for the method and conditions named. Some results given as binding are weak or reduced against the parent protein; the word gives no strength.
T1: human CLL-1 on cells (HEK293AD cells stably expressing recombinant huCLL-1; endogenous CLL-1 on HL-60 and EOL-1 AML cells) (human) (UniProt Q5QGZ9)
T1 sequence: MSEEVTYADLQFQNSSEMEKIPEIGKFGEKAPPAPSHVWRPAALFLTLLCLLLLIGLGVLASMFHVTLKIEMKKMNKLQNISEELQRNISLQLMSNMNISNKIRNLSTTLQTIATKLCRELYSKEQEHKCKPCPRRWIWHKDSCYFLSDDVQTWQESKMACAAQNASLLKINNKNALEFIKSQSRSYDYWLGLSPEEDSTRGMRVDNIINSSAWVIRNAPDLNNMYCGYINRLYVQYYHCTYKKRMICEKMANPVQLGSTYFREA


biological target: T1, human CLL-1 on cells (HEK293AD cells stably expressing recombinant huCLL-1; endogenous CLL-1 on HL-60 and EOL-1 AML cells) (human); experiment: FACS on stable cell lines expressing recombinant huCLL-1 and on AML tumor cell lines

| binding | Binder |
| --- | --- |
| binds | m28H12 (murine anti-CLL-1 monoclonal antibody) (antibody, V domains shown) VH: QVQLQQSGAELVKPGASVKLSCTASGFNIKDTYMHWVKQRPEQGLEWIGRIDPANGDTDYDPKFQGKATVTADTSSNTAYLQLSSLTSEDTAVYYCTISGPPYYVMDYWGQGTSVTVSS VL: DIQMTQSPASLAVSLGQRATISCRASQSVSSSSYSYMHWYQQKPGQPPKLLIKYASNLESGVPARFSGRGSGTDFTLNIHPVEEEDTATYYCQHSWEIPYTFGGGTRLEIK |
| binds | m21C9 (murine anti-CLL-1 monoclonal antibody) (antibody, V domains shown) VH: EVQLQQSGPELVKPGASVKMSCKASGYTFTDYYLDWVKQSHGESFEWIGRVNPYNGGTIYNQKFKGKATLTVDKSSSTAYMDLNSLTSEDSAVYYCARDHYRYDPLLDYWGQGTTLTVSS VL: DIQMTQSHKFMSTSVGDRVSITCKASQDVSTAVAWFQQKPGQSPKLLIYSPSYRYTGVPDRFTGSGSGTDFTFTISSVQAEDLAVYYCQQLYSTPYTFGGGTKLEIK |

The next lines start with the binder.

| Binder | binding |
| --- | --- |
| m20B1 (murine anti-CLL-1 monoclonal antibody) (antibody, V domains shown) VH: EVQLQQSGPELVKPGALVKISCKASGYTFTSYDINWLKQRPGQGLEWIGWIYPGDGTTEYNERFKGKATLTADKSSSTAYLQLSSLTSENSAVYFCARSYDYDYAMDYWGQGTSVTVSS VL: DIVLTQSPAIMSASPGEKVTMTCSASSSISYMYWYQQKPGTSPKRWIYDTSKLASGVPARFSGSGSGTSYSLTISSMEAEDAATYYCHQRSSWTFGGGTKLEIK | binds |
| m6E7 (murine anti-CLL-1 monoclonal antibody) (antibody, V domains shown) VH: QVQLQQSGPELVKPGASVKISCKASGYSFTDYYMHWVKQSHIKSLEWIGRINPYNGAAFYSQNFKDKASLTVDKSSSTAYMELHSLTSEDSAVYYCAIERGADLEGYAMDYWGQGTSVTVSS VL: DIVLTQSPSSLIVSLGQRATISCRASQSVSTSSYNYMHWYQQKPGQPPKLLLKYASNLESGVPARFSGSGSGTDFTLNIHPVEEEDTATYYCQHSWEIPLTFGAGTKLEIK | binds |
